# Results deposited as PubChem BioAssay AID1259254 (NCATS, 2017).
# Assay: 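Finding genes that stop cells copying their DNA twice in one cycle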 (primary screen)
# System: human HCT116 colorectal cancer cells
# Knock-down reagent: single siRNA against human genes
# Timing: 3 days
# Measurement: 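Imaged Hoechst DNA stain sorts each cell into a cycle phase by DNA amount; per plate, G2 fraction set to 0% for non-targeting and 100% for GMNN siRNA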
# Direction: G2 robust z-score and G2 cells, % of GMNN control: higher = more G2 cells, more excess DNA replication
# Hit rule: 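Active siRNAs have a G2 robust z of 5 or more median absolute deviations over the median, which in these data means about 38% or higher of GMNN control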
# Here is one part, drawn at random, of about 59,000 reagents. Over the whole deposit, about 1,550 (2.6%) are marked active. 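G2 share is only a proxy for re-replication; each gene was hit by three separate siRNAs, and active genes were retested.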 The numbers tell different reagents against one gene apart. Further read-outs or replicates are left out here. Not given: the amount of reagent.
Gene,siRNA no.,G2 robust z-score,"G2 cells, % of GMNN control",Call
LYPD5 (GeneID 284348),1,-0.592,-1.2,inactive
LYPD5 (GeneID 284348),2,3.65,28.6,inactive
LYPD5 (GeneID 284348),3,2.11,17.8,inactive
KRTAP23-1 (GeneID 337963),1,0.0827,3.55,inactive
KRTAP23-1 (GeneID 337963),2,8.63,63.7,active
KRTAP23-1 (GeneID 337963),3,-0.749,-2.3,inactive
OVOL1 (GeneID 5017),1,3.78,29.6,inactive
OVOL1 (GeneID 5017),2,-0.202,1.54,inactive
OVOL1 (GeneID 5017),3,-1.25,-5.83,inactive
DGAT1 (GeneID 8694),1,1.98,16.9,inactive
DGAT1 (GeneID 8694),2,-0.0179,2.84,inactive
DGAT1 (GeneID 8694),3,-1.1,-4.79,inactive
ZNF594 (GeneID 84622),1,-0.257,1.16,inactive
ZNF594 (GeneID 84622),2,-0.19,1.63,inactive
ZNF594 (GeneID 84622),3,-0.425,-0.0209,inactive
RTN3 (GeneID 10313),1,0.462,6.22,inactive
RTN3 (GeneID 10313),2,1.22,11.6,inactive
RTN3 (GeneID 10313),3,-0.448,-0.183,inactive
RAB11FIP5 (GeneID 26056),1,-0.781,-2.53,inactive
RAB11FIP5 (GeneID 26056),2,-0.671,-1.75,inactive
RAB11FIP5 (GeneID 26056),3,-0.98,-3.92,inactive
DDR2 (GeneID 4921),1,0.378,5.63,inactive
DDR2 (GeneID 4921),2,-0.838,-2.93,inactive
DDR2 (GeneID 4921),3,-0.878,-3.21,inactive
CAST (GeneID 831),1,-0.932,-3.59,inactive
CAST (GeneID 831),2,0.118,3.8,inactive
CAST (GeneID 831),3,-0.35,0.502,inactive
MAGOHB (GeneID 55110),1,0.802,8.61,inactive
MAGOHB (GeneID 55110),2,-0.241,1.27,inactive
MAGOHB (GeneID 55110),3,1.28,12,inactive

Look-ups from the list.
DGAT1 (GeneID 8694) #3, Call: inactive
MAGOHB (GeneID 55110) #2, Call = inactive
